Some of the results follow. Shown are side measurements of this screen, not its main read-out; they come without a call. Compounds called inactive in the main read-out are mostly missing here. Potencies come from curve fits of mixed quality, noted in brackets.

Data on 53 molecules can be found in PubChem BioAssay AID2685 (National Center for Advancing Translational Sciences (NCATS), 2010).

A short description of the assay: qHTS Assay for Lipid Storage Modulators in Drosophila S3 Cells.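 On cell number change: cells counted by Cell Tracker Red CMTPX staining in the red channel.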 The note with it: BODIPY lipid droplet fluorescence, 18-24 h; for cell number change: measured here: cell count max response, cells fed with added oleic acid. Put shortly: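 Drosophila S3 cells loaded with oleic acid (400 uM, as added) and compounds at several concentrations; lipid droplets imaged by 488-nm laser-scanning cytometry, 500–530 nm intensity and object ratio to cell channel. Percent activity normalized to 20 uM Triacsin C.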
(qHTS replaces the single test concentration by a dilution series.)

Setting [1] is: measured here: cell number channel AC50, cells fed with added oleic acid.
The mark [2] stands for this setting: measured here: lipid fluorescence (Fed channel) AC50, cells fed with added oleic acid.

As for `CCNC(=O)NNC(=O)C1CC(c2cccnc2)=NO1` (stereo not given), the cell number change is -47.2%. Moreover, under setting [1], the AC50 is 20.6 µM [falling, single point].

As for `CC(Cc1ccccc1)NC(N)=O` (stereo not given), the cell number change is 7.81%. For the same molecule, under setting [2], the AC50 is 0.411 µM [falling, partial curve, poor fit].

With `CN(C)C(=O)Oc1cc(=O)n2c3c(cccc13)CCC2`, the cell number change was 19.1%. Besides, the AC50 under setting [2] is 18.4 µM [rising, single point].

Consider `O=C(c1ccc(Cl)cc1)C1CCCN(Cc2ccc3ncccc3c2)C1` (stereo not given), for which the cell number change was -20.7%. Also, the AC50 under setting [2] is 29.1 µM [falling, single point].

As to `CN1CCN(C(=S)SCC(=O)Nc2ccc(Cl)cc2C(=O)c2ccccc2)CC1`, the cell number change was found to be 46.7%. Moreover, the AC50 under setting [1] was 25.9 µM [rising, single point]. In addition, the AC50 under setting [2] is 11.6 µM [rising, partial curve, poor fit].

For `O=Cc1c(C(=O)O)n(Cc2ccccc2F)c2ccccc12`, the cell number change came to 20.5%.

Take `O=C1CC(=O)N(c2ccccc2F)C(=O)N1`: the cell number change came out at 4.17%. The AC50 under setting [2] was 29.1 µM [falling, single point].

As to `CN1CCCC(C(=O)c2ccc(Cl)cc2)C1` (stereo not given), the cell number change was -22.3%. Besides, the AC50 under setting [1] was 5.8 µM [falling, single point].

Turning to `Cc1ccccc1C(O)(Cc1ccccc1)C1CN2CCC1CC2` (stereo not given), the cell number change was determined as 4.04%. Besides, the AC50 under setting [2] is 6.51 µM [falling, single point].

With `CC(Cl)(Cl)/C(=N/P(=S)(N1CCOCC1)N1CCOCC1)N1CCOCC1`, the cell number change was -10.2%. The AC50 under setting [1] is 0.0058 µM [falling, full curve, poor fit]. Besides, under setting [2], the AC50 was 1.3 µM [falling, full curve, poor fit].

`CC(C)c1ccc(N2C(=O)NC(=O)/C(=C\C=C\c3ccco3)C2=O)cc1`: the cell number change is -56.2%. For the same molecule, under setting [1], the half-maximal activity concentration (AC50) was 20.6 µM [falling, single point]. The AC50 under setting [2] is 20.6 µM [falling, single point].

As to `COC(=O)C1=C(c2c(C)noc2C)C[C@@H]2CC[C@H]1N2C(=O)NCCOc1ccccc1`, the cell number change came out at 6.08%. Moreover, the AC50 under setting [1] is 1.84 µM [rising, partial curve, poor fit].

On to `Cc1nn(Cc2c(Cl)cccc2Cl)c(Cl)c1C(=O)O`, for which the AC50 under setting [1] was 0.58 µM [rising, partial curve].

As for `COC(=O)C1=C(c2cc3ccccc3s2)C[C@@H]2CC[C@H]1N2C`, the cell number change was 2.7%. In addition, the AC50 under setting [2] was 0.259 µM [rising, full curve, poor fit].

As to `Cc1ccccc1CCNCc1ccc(Br)cc1`, the cell number change is -57.3%. The AC50 under setting [1] was 29.1 µM [falling, single point]. Moreover, the AC50 under setting [2] was 29.1 µM [falling, single point].

Consider `CCCCCCN1CCN(c2ccccc2Cl)CC1`, for which the cell number change is -12%.

Regarding `COc1ccc(-n2nc(C(=O)NCC(=O)N3CCC4(CC3)OCCO4)c3ccccc3c2=O)cc1OC`, the cell number change is -15.9%. Besides, the AC50 under setting [2] is 0.92 µM [falling, full curve].

Regarding `CN1CC(C(=O)c2cccc(C(F)(F)F)c2)C(c2ccc(Cl)cc2)C1` (stereo not given), the cell number change is -58.3%. In addition, the AC50 under setting [1] is 20.6 µM [falling, partial curve]. Besides, the AC50 under setting [2] is 23.1 µM [falling, partial curve].

Consider `COC(=O)C1=C(c2ccc(F)cc2OCc2ccccc2)C[C@@H]2CC[C@H]1N2C(=O)NCc1ccccc1C(F)(F)F`, for which the cell number change was -4.05%. In addition, the concentration at half-maximal activity (AC50) under setting [1] is 0.82 µM [falling, full curve, poor fit]. The AC50 under setting [2] was 1.84 µM [falling, partial curve, poor fit].

Regarding `CCCCn1c(O)c(C(CC)=NCc2cccnc2)c(=O)[nH]c1=O`, the AC50 under setting [2] was 25.9 µM [falling, partial curve, poor fit].

Consider `COc1cc(O)cc2c1C(=O)O[C@@H](C)CCCC(=O)CCCCC2`, for which the cell number change was -29.4%.

Regarding `COc1ccc(N2C(=O)NC(=O)/C(=C\c3cn(C)c4ccccc34)C2=O)cc1`, the cell number change was -4.32%.

For the molecule `C/C1=C\[C@@H](C)C/C=C/[C@H]2[C@@H]3O[C@]3(C)[C@@H](C)[C@H]3[C@H](Cc4c[nH]c5ccccc45)NC(=O)[C@]32C(=O)/C=C/C(=O)[C@@H]1O`, the cell number change was -62.6%. The AC50 under setting [1] is 29.1 µM [falling, single point]. Moreover, the AC50 under setting [2] is 23.1 µM [falling, single point].

Consider `CN(C)C1(CNC(=O)c2ccc(NS(=O)(=O)c3ccc(Cl)c(Cl)c3)cc2)CCCCC1`, for which the cell number change was -4.07%. Also, the AC50 under setting [2] was 0.146 µM [rising, full curve, poor fit].

Regarding `O=c1[nH]c(=S)n(Cc2ccc(F)cc2)c(O)c1/C=N/N1CCCCC1`, the cell number change was -8.19%. The AC50 under setting [1] was 1.3 µM [falling, partial curve, poor fit]. The concentration at half-maximal activity (AC50) under setting [2] is 18.4 µM [rising, single point].

With `O=c1[nH]c2ccccc2n1CCCN1CCC(n2c(=O)[nH]c3cc(Cl)ccc32)CC1`, the cell number change was 11.8%. The AC50 under setting [2] was 16.4 µM [rising, single point].

For `CCN(CC)c1ccc(/C=N/c2sc3c(c2C#N)C2CCN3CC2)c(O)c1`, the cell number change was -89%. For the same molecule, the AC50 under setting [1] was 23.1 µM [falling, partial curve]. Further, the AC50 under setting [2] is 4.61 µM [falling, full curve].

Regarding `O=c1[nH]c(=O)n(-c2cccc(Cl)c2)c(O)c1C=NCCCN1CCOCC1`, the cell number change is -6.55%.

Take `CCOC(=O)c1ccc(NC(=O)c2c(O)[nH]c(=O)[nH]c2=O)cc1`: the cell number change is -98.5%. Besides, the AC50 under setting [1] is 20.6 µM [falling, single point]. Moreover, the AC50 under setting [2] was 16.4 µM [falling, partial curve, poor fit].

Consider `Cc1ccc(NC(=O)CN2C(=O)CN=C(c3ccccc3)c3cc(Cl)ccc32)cc1`, for which the cell number change was -47.4%. Further, under setting [1], the AC50 was 11.6 µM [falling, partial curve, poor fit]. Further, the AC50 under setting [2] is 9.2 µM [falling, partial curve].

Consider `CN1C2CCC1/C(=C/c1ccccn1)C(=O)/C2=C\c1ccccn1`, for which the cell number change is -80.2%. Moreover, the AC50 under setting [1] is 16.4 µM [falling, partial curve]. Further, the AC50 under setting [2] was 1.46 µM [falling, full curve].

For the molecule `COC(=O)C1=C(c2ccc(OC(F)(F)F)cc2)C[C@@H]2CC[C@H]1N2C(=O)N1CCCC1`, the cell number change was -13.3%. In addition, the AC50 under setting [1] was 2.59 µM [falling, single point]. The concentration at half-maximal activity (AC50) under setting [2] was 6.51 µM [falling, single point].

As for `CCOC(=O)c1ccc(N=Cc2c(O)n(-c3ccccc3F)c(=S)[nH]c2=O)cc1`, the cell number change was -10%. Also, the half-maximal activity concentration (AC50) under setting [2] is 29.1 µM [rising, single point].

Consider `CN(C)c1ccc(/C=C/c2cc[n+](C)c3ccccc23)cc1`, for which the cell number change was -85.8%. For the same molecule, the AC50 under setting [1] was 7.31 µM [falling, partial curve]. The AC50 under setting [2] was 16.4 µM [falling, partial curve].

With `CC(C)[C@H]1C(=O)O[C@H](C(C)C)C(=O)N(C)[C@@H](C(C)C)C(=O)O[C@H](C(C)C)C(=O)N(C)[C@@H](C(C)C)C(=O)O[C@H](C(C)C)C(=O)N1C`, the AC50 under setting [2] is 5.17 µM [falling, partial curve, poor fit].

`CC(C)n1c(=O)c(C=Nc2cccc([N+](=O)[O-])c2)c(O)n(CCc2ccccc2)c1=O`: the cell number change is 26.4%. Also, the AC50 under setting [2] is 10.3 µM [rising, single point].

Regarding `CC1=NN(Cc2c[nH]c3ccccc23)C(C)(C)C1`, the cell number change was -33.1%. Moreover, the AC50 under setting [1] was 11.6 µM [falling, partial curve, poor fit].

Consider `CC(=O)Nc1ccc(S(=O)(=O)NC(CC(=O)N2CCC3(CC2)OCCO3)C(C)C)cc1` (stereo not given), for which the cell number change is -17.6%. The AC50 under setting [2] is 0.651 µM [falling, single point].

With `CCOC(C(=O)OCCC[N+](C)(CC)CC)(c1ccccc1)c1ccccc1`, the cell number change was -14.6%. Under setting [2], the AC50 is 0.58 µM [falling, full curve].

For `O=C(O)CCn1cc(C=C2C(=O)NC(=O)NC2=O)c(-c2ccc(Br)cc2)n1`, the cell number change was -6.75%. Also, under setting [2], the AC50 is 2.91 µM [falling, single point].

For `CCn1c(O)c(C=NCc2cccs2)c(=O)[nH]c1=O`, the cell number change is -24.6%. Under setting [1], the AC50 was 0.82 µM [falling, full curve, poor fit]. Also, the half-maximal activity concentration (AC50) under setting [2] is 6.51 µM [falling, partial curve].

`CCC(C)NC(=O)CN1C(=O)CN=C(c2ccccc2)c2ccccc21` (stereo not given): the cell number change came to 17.6%. Under setting [2], the half-maximal activity concentration (AC50) is 6.51 µM [rising, single point].

Take `CN(C)P(=O)(C(Cl)=C(N1CCCCC1)N1CCCCC1)N(C)C`: the cell number change turned out to be 2.09%. Also, the AC50 under setting [2] is 1.16 µM [rising, full curve].

Regarding `C=CCn1c(O)c(C(CC)=NC2CC2)c(=O)[nH]c1=O`, the cell number change is -8.14%. Besides, the AC50 under setting [2] was 4.61 µM [falling, partial curve, poor fit].

As for `CCOc1ccc(N=Cc2c(O)n(-c3ccc(C)c(C)c3)c(=O)[nH]c2=O)cc1`, the cell number change was found to be 16.7%. Further, the AC50 under setting [2] was 7.31 µM [falling, partial curve, poor fit].

With `O=[N+]([O-])c1ccc(NCc2ccccc2)c2nonc12`, the cell number change is -85.7%. For the same molecule, the AC50 under setting [1] is 32.6 µM [falling, partial curve, poor fit].

With `COc1cccc(C(=O)C2CCCN(Cc3cccc4c3OCO4)C2)c1` (stereo not given), the cell number change worked out at 2.22%. The AC50 under setting [2] was 32.6 µM [rising, single point].

Turning to `C#C[C@]1(O)CC[C@H]2[C@@H]3CCC4=CC(=O)CC[C@]4(C)[C@H]3CC[C@@]21C`, the cell number change turned out to be 32.3%. Besides, the AC50 under setting [1] was 29.1 µM [rising, single point]. Also, the AC50 under setting [2] is 29.1 µM [falling, single point].

Take `O=C1NC(=O)N(c2ccccc2)C(=O)/C1=C\C=C\c1ccccc1`: the cell number change is -48%. Under setting [1], the AC50 was 3.26 µM [falling, full curve].

Consider `O=C(Nc1cccc(Cl)c1)OC1CN2CCC1CC2` (stereo not given), for which the cell number change was -50.5%. The concentration at half-maximal activity (AC50) under setting [1] was 6.51 µM [falling, full curve]. Further, under setting [2], the AC50 was 5.8 µM [falling, full curve].

Turning to `CCCCn1c(O)c(C(C)=NCCCn2ccnc2)c(=O)[nH]c1=O`, the cell number change stood at 9.42%. For the same molecule, the AC50 under setting [2] was 1.84 µM [rising, partial curve].

As for `c1ccc2sc(N3CCNCC3)nc2c1`, the cell number change was -10.6%. Also, the AC50 under setting [2] was 29.1 µM [falling, single point].

In the case of `Cc1nc2ccccc2n1C1CCN(Cc2nnnn2CCc2ccccc2)CC1`, the cell number change was -11.5%. Further, the concentration at half-maximal activity (AC50) under setting [2] was 3.26 µM [rising, single point].

For orientation: AC50 means the concentration giving half of the maximal activity seen. Read a low AC50 as greater potency.
